Laboratory results: the supplement of paper PMC6411743
± gives the standard deviation of the averaged measurements. This is a selection; strong and weak results do not stand in their true shares.

Sequences of proteins named here, by UniProt entry; tags and fusion partners are left off. A change or cut given only in a name is not applied to a line headed by its entry.
UniProt Q9NRN9: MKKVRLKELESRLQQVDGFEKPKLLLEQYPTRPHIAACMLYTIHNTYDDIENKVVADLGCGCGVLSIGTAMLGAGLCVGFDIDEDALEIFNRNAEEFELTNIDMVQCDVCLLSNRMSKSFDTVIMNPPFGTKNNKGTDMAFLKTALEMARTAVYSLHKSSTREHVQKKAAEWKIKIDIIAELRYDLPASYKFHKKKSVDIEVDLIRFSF
UniProt Q969T9: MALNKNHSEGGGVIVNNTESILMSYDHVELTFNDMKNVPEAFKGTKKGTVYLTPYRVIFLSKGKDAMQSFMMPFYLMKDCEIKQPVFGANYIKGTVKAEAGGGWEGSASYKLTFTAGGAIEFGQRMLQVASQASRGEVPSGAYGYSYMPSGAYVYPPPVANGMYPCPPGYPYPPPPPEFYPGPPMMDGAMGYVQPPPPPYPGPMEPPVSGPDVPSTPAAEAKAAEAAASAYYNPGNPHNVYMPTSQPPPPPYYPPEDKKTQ
UniProt P19256, whole entry: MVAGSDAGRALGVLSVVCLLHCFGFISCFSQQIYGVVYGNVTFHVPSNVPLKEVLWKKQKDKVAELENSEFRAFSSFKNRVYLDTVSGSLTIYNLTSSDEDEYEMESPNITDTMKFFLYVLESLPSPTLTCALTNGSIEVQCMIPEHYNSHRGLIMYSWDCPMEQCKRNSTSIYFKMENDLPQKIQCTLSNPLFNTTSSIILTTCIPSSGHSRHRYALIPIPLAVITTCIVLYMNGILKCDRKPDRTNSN
UniProt P13798: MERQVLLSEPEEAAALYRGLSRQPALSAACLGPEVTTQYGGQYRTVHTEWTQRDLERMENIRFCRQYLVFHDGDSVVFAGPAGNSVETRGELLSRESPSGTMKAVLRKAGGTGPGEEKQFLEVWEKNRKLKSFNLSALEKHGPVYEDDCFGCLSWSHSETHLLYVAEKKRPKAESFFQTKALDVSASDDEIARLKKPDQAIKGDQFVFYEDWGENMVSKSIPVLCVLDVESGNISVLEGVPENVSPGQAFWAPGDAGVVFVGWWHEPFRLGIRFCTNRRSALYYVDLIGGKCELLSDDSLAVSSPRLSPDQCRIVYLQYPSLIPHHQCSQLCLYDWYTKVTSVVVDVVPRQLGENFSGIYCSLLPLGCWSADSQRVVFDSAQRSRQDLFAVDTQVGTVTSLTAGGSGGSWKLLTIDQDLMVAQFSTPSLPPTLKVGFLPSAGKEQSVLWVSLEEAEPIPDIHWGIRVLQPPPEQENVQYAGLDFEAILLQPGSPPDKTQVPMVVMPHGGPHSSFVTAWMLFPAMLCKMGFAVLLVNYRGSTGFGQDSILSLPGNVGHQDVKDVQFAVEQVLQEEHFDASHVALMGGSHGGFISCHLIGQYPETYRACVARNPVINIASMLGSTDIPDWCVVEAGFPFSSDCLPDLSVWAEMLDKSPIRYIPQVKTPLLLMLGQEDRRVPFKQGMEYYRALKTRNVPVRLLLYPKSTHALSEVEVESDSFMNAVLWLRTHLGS
UniProt P55212: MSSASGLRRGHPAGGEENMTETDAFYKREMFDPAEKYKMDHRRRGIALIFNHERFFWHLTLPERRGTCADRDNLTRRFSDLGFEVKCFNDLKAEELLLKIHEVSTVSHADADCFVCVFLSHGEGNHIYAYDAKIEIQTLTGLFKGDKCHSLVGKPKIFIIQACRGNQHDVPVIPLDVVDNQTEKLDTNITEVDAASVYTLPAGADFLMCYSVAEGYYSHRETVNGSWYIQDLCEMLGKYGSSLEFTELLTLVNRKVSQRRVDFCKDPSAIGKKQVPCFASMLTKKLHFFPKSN
UniProt O76054, whole entry: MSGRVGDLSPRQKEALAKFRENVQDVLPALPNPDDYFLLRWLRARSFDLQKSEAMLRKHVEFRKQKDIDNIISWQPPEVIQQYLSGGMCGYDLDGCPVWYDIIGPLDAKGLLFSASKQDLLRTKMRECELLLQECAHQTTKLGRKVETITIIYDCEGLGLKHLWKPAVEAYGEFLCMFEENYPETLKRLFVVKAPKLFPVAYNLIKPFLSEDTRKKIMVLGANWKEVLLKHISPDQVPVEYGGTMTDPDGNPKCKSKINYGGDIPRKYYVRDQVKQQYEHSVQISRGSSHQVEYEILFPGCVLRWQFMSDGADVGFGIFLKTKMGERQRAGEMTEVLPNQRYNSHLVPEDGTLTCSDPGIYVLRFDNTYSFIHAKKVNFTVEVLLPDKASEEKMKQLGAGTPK
UniProt Q9NZJ5: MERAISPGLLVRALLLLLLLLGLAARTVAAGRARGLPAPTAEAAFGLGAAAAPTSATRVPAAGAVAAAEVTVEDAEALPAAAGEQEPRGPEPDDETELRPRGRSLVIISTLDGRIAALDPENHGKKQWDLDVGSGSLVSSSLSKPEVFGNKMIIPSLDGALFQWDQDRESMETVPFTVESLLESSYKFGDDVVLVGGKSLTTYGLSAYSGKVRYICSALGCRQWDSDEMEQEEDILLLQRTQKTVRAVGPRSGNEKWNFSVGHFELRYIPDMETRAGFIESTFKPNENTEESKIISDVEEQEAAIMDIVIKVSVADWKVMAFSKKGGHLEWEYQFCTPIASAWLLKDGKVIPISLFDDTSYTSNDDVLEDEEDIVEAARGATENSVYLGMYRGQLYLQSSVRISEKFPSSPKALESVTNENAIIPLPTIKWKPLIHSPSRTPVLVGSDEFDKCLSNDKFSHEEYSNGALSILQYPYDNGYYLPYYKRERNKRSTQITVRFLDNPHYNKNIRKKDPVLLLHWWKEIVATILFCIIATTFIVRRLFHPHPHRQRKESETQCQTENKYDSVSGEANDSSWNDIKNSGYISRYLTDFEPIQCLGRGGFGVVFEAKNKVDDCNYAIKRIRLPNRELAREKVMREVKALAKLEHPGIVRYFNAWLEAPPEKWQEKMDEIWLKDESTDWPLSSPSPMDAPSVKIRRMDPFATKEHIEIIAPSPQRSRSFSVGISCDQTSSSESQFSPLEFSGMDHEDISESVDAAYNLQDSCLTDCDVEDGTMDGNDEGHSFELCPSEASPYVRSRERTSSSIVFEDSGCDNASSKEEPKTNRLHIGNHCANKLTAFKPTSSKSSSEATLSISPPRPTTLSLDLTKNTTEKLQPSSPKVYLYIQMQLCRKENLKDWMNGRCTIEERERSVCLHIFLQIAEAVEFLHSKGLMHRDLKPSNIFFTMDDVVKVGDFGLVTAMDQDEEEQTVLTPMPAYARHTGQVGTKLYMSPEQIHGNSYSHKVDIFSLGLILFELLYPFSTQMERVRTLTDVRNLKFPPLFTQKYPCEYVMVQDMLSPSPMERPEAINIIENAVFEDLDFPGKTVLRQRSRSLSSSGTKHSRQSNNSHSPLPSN
UniProt Q96GF1: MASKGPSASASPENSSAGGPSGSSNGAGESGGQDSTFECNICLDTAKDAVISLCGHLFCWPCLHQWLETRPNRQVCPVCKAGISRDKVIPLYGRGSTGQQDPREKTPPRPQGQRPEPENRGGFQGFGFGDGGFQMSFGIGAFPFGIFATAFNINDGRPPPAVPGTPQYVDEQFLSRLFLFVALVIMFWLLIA
UniProt P0DMV9, whole entry, looked up: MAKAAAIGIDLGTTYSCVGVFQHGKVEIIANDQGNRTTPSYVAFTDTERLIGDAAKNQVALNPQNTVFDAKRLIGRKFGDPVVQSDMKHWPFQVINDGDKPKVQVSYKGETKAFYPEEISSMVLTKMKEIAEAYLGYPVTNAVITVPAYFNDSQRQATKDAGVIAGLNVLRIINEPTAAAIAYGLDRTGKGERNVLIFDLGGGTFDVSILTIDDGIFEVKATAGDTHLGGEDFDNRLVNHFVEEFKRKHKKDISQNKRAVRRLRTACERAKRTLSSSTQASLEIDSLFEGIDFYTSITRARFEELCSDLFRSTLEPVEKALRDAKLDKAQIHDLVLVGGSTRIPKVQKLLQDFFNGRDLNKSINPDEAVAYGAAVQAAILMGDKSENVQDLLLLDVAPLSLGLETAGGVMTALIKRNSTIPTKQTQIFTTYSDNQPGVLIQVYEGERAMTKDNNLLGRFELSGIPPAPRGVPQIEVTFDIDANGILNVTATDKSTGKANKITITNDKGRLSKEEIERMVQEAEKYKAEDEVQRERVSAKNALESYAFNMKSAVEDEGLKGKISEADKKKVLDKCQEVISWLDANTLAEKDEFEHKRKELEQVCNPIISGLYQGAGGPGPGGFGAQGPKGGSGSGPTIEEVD
UniProt Q14919: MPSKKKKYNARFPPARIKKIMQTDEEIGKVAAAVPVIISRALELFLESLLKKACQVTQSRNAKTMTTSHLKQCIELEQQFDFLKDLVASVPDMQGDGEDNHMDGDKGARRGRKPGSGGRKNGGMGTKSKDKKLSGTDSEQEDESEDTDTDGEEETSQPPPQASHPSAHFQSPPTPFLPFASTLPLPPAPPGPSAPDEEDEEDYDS
UniProt A4D1U4: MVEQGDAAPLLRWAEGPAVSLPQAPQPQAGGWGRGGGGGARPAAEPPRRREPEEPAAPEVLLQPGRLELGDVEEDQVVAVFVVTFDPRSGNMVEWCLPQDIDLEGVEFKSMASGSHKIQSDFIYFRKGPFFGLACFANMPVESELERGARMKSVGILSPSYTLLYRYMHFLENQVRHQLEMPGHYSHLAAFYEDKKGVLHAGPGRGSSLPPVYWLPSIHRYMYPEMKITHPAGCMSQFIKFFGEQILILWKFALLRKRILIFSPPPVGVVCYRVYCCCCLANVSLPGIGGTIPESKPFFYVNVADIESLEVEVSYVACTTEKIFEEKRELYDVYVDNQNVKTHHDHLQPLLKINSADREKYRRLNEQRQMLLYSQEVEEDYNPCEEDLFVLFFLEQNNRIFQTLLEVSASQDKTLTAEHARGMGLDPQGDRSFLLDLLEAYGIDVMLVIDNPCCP
UniProt Q969S8: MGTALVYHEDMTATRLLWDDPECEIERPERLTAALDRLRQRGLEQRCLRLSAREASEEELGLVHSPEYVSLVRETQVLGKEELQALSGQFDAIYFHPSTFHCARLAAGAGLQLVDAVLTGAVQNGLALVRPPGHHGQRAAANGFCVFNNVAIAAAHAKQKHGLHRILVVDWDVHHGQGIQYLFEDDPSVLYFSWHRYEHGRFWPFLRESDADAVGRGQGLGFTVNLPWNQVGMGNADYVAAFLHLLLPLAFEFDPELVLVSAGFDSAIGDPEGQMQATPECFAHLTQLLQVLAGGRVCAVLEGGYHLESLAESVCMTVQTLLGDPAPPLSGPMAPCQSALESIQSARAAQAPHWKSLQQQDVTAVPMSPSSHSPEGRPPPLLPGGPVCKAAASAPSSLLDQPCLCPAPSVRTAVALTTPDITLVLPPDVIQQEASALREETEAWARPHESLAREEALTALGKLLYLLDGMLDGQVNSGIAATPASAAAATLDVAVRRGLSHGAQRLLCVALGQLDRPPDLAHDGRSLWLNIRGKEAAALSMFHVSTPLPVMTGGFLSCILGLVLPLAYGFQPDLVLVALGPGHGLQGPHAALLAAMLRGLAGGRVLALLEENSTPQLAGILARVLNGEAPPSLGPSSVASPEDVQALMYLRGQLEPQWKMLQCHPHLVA
UniProt Q8NBI6: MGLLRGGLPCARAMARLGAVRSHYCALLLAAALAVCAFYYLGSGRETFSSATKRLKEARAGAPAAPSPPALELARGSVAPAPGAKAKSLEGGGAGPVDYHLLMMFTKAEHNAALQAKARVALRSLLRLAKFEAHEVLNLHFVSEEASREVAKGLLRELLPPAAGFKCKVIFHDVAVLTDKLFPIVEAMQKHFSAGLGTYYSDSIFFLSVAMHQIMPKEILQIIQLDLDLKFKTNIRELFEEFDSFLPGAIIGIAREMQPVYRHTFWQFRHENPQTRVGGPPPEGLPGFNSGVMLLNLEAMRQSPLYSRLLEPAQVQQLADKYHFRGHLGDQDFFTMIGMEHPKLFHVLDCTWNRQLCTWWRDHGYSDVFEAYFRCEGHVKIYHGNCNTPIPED
UniProt Q15853: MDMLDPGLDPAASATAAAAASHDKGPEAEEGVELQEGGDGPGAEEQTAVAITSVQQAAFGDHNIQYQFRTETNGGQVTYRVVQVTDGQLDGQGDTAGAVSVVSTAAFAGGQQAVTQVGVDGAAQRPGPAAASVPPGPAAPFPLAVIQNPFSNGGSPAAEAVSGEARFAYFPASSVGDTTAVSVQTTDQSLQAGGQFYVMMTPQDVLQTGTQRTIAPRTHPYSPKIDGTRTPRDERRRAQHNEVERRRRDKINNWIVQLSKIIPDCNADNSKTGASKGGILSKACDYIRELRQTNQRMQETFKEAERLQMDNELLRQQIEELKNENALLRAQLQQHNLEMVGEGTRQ
UniProt O00258: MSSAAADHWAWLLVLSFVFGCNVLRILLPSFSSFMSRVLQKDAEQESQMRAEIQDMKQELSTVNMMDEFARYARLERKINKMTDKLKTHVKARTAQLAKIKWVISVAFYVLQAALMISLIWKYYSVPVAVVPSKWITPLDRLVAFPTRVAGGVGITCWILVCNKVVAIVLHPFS
UniProt Q9NY35: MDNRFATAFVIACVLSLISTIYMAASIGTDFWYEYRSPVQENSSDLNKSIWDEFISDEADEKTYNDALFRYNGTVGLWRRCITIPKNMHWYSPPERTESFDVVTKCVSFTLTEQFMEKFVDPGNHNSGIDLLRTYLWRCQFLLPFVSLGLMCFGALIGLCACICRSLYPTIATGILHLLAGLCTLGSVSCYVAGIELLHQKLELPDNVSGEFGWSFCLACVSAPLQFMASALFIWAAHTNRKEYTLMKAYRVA

Compound: Nc1ncnc2c1ncn2[C@@H]1O[C@H](COP(=O)(O)OP(=O)(O)OP(=O)(O)O)[C@@H](O)[C@H]1O [adenosine triphosphate]
Assay: NP40-soluble protein abundance relative to vehicle (solubility fold change) (ratio); higher = more soluble protein in presence of ATP
How it was run: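 Data come from three independent experiments in which Dounce-homogenised Jurkat crude lysate was treated at eight concentrations from 0.1 to 10 mM. Treatment ran 10 min at room temperature and then 3 min at 37 °C, after which 0.8% NP40 and benzonase were added for 60 min at 4 °C before ultracentrifugation. The supernatant underwent TMT labelling and LC-MS/MS, and vsn-normalised intensities were expressed as fold change against the detergent-processed vehicle in each replicate.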

Target	NP40-soluble protein abundance (concentration: 1mM)	NP40-soluble protein abundance (concentration: 2mM)	NP40-soluble protein abundance (concentration: 4mM)	NP40-soluble protein abundance (concentration: 6mM)	NP40-soluble protein abundance (concentration: 8mM)	NP40-soluble protein abundance (concentration: 10mM)
B8ZZC8 and related entries (UniProt Q9NRN9)	1.02 ± 0.04	1.02 ± 0.048	1.03 ± 0.052	1.01 ± 0.084	1.04 ± 0.041	1.04 ± 0.055
A6NG10 and related entries (UniProt Q969T9)	0.912 ± 0.031	0.957 ± 0.045	0.908 ± 0.026	0.928 ± 0.058	0.894 ± 0.049	0.924 ± 0.012
B1AMW1 and related entries (UniProt P19256)	0.917 ± 0.12	0.952 ± 0.092	0.932 ± 0.084	0.937 ± 0.12	0.8596 ± 0.006	0.844 ± 0.1
B9EGA3 and related entries (UniProt Q92925)	1.02 ± 0.011	1.02 ± 0.016	1.04 ± 0.057	1 ± 0.049	1.09 ± 0.065	1.04 ± 0.033
A0A0J9YWD5|A0A0J9YYB5|B7ZM65 and related entries (UniProt Q9P1Y6)	1.03 ± 0.058	1.09 ± 0.041	1.26 ± 0.046	1.37 ± 0.093	1.33 ± 0.1	1.39 ± 0.1
C9JIF9 and related entries (UniProt P13798)	0.986 ± 0.066	0.95 ± 0.047	0.909 ± 0.053	0.92 ± 0.043	0.964 ± 0.05	0.923 ± 0.054
D6RHU3 and related entries (UniProt P55212)	0.998 ± 0.095	0.994 ± 0.11	0.989 ± 0.1	0.936 ± 0.13	1 ± 0.058	0.969 ± 0.074
A0A0U1RRB3|Q8IYT2 (UniProt Q8IYT2)	0.988 ± 0.087	1.02 ± 0.09	0.992 ± 0.077	0.95 ± 0.092	1.01 ± 0.081	1.02 ± 0.049
B1AQP1 and related entries (UniProt P22415)	0.947 ± 0.035	0.98 ± 0.046	0.937 ± 0.03	0.986 ± 0.029	0.923 ± 0.033	0.917 ± 0.052
B4DKB2 and related entries (UniProt P42892)	0.941 ± 0.024	0.975 ± 0.021	0.968 ± 0.013	0.99 ± 0.06	0.945 ± 0.028	0.918 ± 0.045
D6REL5 and related entries (UniProt Q6UWZ7)	0.987 ± 0.025	1.02 ± 0.06	1.01 ± 0.035	1.04 ± 0.039	1.02 ± 0.047	1.03 ± 0.05
B3KRD8 and related entries (UniProt O76054)	0.991 ± 0.054	0.998 ± 0.021	0.934 ± 0.059	0.981 ± 0.084	0.906 ± 0.044	0.923 ± 0.011
A6NEM2 and related entries (UniProt P51610)	0.989 ± 0.035	0.981 ± 0.045	0.967 ± 0.045	1.02 ± 0.062	0.959 ± 0.035	0.976 ± 0.029
C9J185 and related entries (UniProt Q9NZJ5)	1.02 ± 0.11	1.01 ± 0.048	1.04 ± 0.2	0.949 ± 0.081	1.02 ± 0.2	1.06 ± 0.064
A9X3U0 and related entries (UniProt Q96GF1)	0.982 ± 0.1	0.997 ± 0.12	0.964 ± 0.15	1 ± 0.13	0.96 ± 0.16	0.959 ± 0.16
A6NIW2 and related entries (UniProt Q5JSL3)	1.06 ± 0.087	1.01 ± 0.064	1.02 ± 0.072	0.972 ± 0.049	1.05 ± 0.056	0.992 ± 0.019
A6NHB5 and related entries (UniProt Q14202)	1.08 ± 0.041	1.09 ± 0.046	1.12 ± 0.051	1.14 ± 0.09	1.17 ± 0.096	1.21 ± 0.077
A9UF01 and related entries (UniProt P11274)	1.01 ± 0.08	1 ± 0.068	0.993 ± 0.068	0.984 ± 0.086	0.983 ± 0.081	1 ± 0.093
A0A0G2JIW1|P0DMV8 and related entries (UniProt P0DMV9+P0DMV8)	1.02 ± 0.055	1.01 ± 0.017	0.978 ± 0.033	1.03 ± 0.013	0.982 ± 0.027	0.966 ± 0.012
C9JCC6 and related entries (UniProt Q14919)	0.915 ± 0.25	0.781 ± 0.12	0.737 ± 0.17	0.672 ± 0.14	0.725 ± 0.074	0.579 ± 0.23
UniProt A6NHR9 and related entries	1.04 ± 0.068	1.04 ± 0.068	1.04 ± 0.05	1.02 ± 0.082	1.09 ± 0.042	1.08 ± 0.066
A8MUS3 and related entries (UniProt P62750)	0.937 ± 0.09	0.868 ± 0.073	0.829 ± 0.11	0.812 ± 0.095	0.7 ± 0.052	0.785 ± 0.11
A4D1U4 and related entries (UniProt C9J7X6+A4D1U4)	1.11 ± 0.027	1.046 ± 0.0031	1.15 ± 0.13	1.06 ± 0.095	1.11 ± 0.061	1.07 ± 0.1
C9J8B8 and related entries (UniProt Q969S8)	0.847 ± 0.012	0.872 ± 0.091	0.817 ± 0.063	0.857 ± 0.016	0.901 ± 0.17	0.859 ± 0.1
A0A140T9D0|Q8NBI6 and related entries (UniProt Q8NBI6)	1.01 ± 0.17	1.03 ± 0.093	1 ± 0.084	0.973 ± 0.19	0.899 ± 0.19	0.953 ± 0.14
B4DLJ1 and related entries (UniProt Q15853)	0.937 ± 0.05	0.949 ± 0.044	0.946 ± 0.031	1 ± 0.027	0.934 ± 0.048	0.932 ± 0.016
B7Z1T1 (UniProt O00258)	1.05 ± 0.23	0.965 ± 0.12	0.974 ± 0.072	0.895 ± 0.18	1.01 ± 0.02	1.03 ± 0.042
D3YTB1 and related entries (UniProt P62910)	0.931 ± 0.048	0.909 ± 0.1	0.873 ± 0.098	0.766 ± 0.12	0.635 ± 0.18	0.852 ± 0.14
B4DIG0 and related entries (UniProt P30305)	0.949 ± 0.16	1.02 ± 0.049	1.06 ± 0.032	1.07 ± 0.015	1 ± 0.068	0.97 ± 0.17
A0A0R4J2F2|D6R9S8 and related entries (UniProt Q9NY35)	0.929 ± 0.095	0.973 ± 0.084	0.957 ± 0.012	0.947 ± 0.09	0.877 ± 0.043	0.905 ± 0.031

Exported with each value named: entries from further up.
D6REL5 and related entries (UniProt Q6UWZ7)
  NP40-soluble protein abundance (concentration: 1mM): 0.987 ± 0.025
  NP40-soluble protein abundance (concentration: 2mM): 1.02 ± 0.06
  NP40-soluble protein abundance (concentration: 4mM): 1.01 ± 0.035
  NP40-soluble protein abundance (concentration: 6mM): 1.04 ± 0.039
  NP40-soluble protein abundance (concentration: 8mM): 1.02 ± 0.047
  NP40-soluble protein abundance (concentration: 10mM): 1.03 ± 0.05
A9UF01 and related entries (UniProt P11274)
  NP40-soluble protein abundance (concentration: 1mM): 1.01 ± 0.08
  NP40-soluble protein abundance (concentration: 2mM): 1 ± 0.068
  NP40-soluble protein abundance (concentration: 4mM): 0.993 ± 0.068
  NP40-soluble protein abundance (concentration: 6mM): 0.984 ± 0.086
  NP40-soluble protein abundance (concentration: 8mM): 0.983 ± 0.081
  NP40-soluble protein abundance (concentration: 10mM): 1 ± 0.093
